The test deals with BDF1 mice, P388 leukemia ip, median survival T/C. The test can be described thus: NCI In Vivo Anticancer Drug Screen. Data for tumor model P388 Leukemia (intraperitoneal) in B6D2F1 (BDF1) mice. Conditions: T/C endpoint: median survival time, higher T/C = longer survival. Summed up:
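Mice carrying the transplantable tumour receive compound or vehicle. Survival is followed in each arm, and the treated measure is divided by the vehicle measure.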

Setting [1] is: dose: 100.0 mg/kg/injection, schedule: Q01DX009 (ip), vehicle: saline with Tween-80.
Setting [2] is: dose: 100.0 mg/kg/injection, schedule: Q01DX009 (ip), vehicle: saline.
[3] abbreviates: dose: 200.0 mg/kg/injection, schedule: Q01DX009 (ip), vehicle: saline with Tween-80.
Setting [4] is: dose: 400.0 mg/kg/injection, schedule: Q01DX009 (ip), vehicle: saline with Tween-80.

The list shows only some results of the screen, not a fair sample: it gathers tests that were run many times, whatever their T/C, doses with no T/C, and many T/C values between a quarter and a half above the control. Other doses and runs of a compound stand elsewhere. T/C: endpoint of the treated group in % of that of the vehicle group. Some doses have a count of surviving animals in place of a T/C: the source files T/C as zero there, which appears to mark a toxic dose or a test without result, not a measured value. Some survivor counts are full or nearly so, which does not show that the dose was tolerated: survival well below the control is almost never listed, so the zero probably covers shortened survival too. Counts of survivors are from the toxicity check (mostly the fifth day) where no day follows; animals may have died later. Schedule codes are those of the source, taken here to give the interval after Q, in days (D) or hours (H), and the number of doses after X. Some schedule codes hold Z or #, which are not explained here. Where survival is the endpoint, the PubChem record calls one and a half times the control and up active, and a quarter to a half above the control has no call in these data; cut-offs in other NCI protocols can differ. Some entries were tested several times; the results are listed from low to high.

For the molecule `CCSc1ccc2c(c1)N(CCCN1CCN(C)CC1)c1ccccc1S2`, the T/C (dose: 50.0 mg/kg/injection, schedule: Q04DX003 (ip), vehicle: saline) is 135 % of control and the T/C (dose: 60.0 mg/kg/injection, schedule: Q04DX003 (ip), vehicle: saline) is 130 % of control. Moreover, the survivor count runs as follows: under setting [1], 0 of 8; under setting [2], 1 of 6; under setting [3], 0 of 8; (dose: 200.0 mg/kg/injection, schedule: Q01DX009 (ip), vehicle: saline) 0 of 6.
For the molecule `OC(Cc1cc(CC(O)(C(F)(F)F)C(F)(F)F)ncn1)(C(F)(F)F)C(F)(F)F`, the survivor count under setting [4] is on record as 6 of 6.
Regarding `C=C(C)C12OC3(c4ccccc4)OC1C1C4OC4(CO)C(O)C4(O)C(=O)C(C)=CC4C1(O3)C(C)C2OC(=O)/C=C/C=C/C=C/CCC` (configuration not stated), the survivor count is on record as 6 of 6 (dose: 200.0 micrograms/kg/injection, schedule: Q## X009 (ip), vehicle: saline with Tween-80) and 5 of 6 (dose: 400.0 micrograms/kg/injection, schedule: Q## X009 (ip), vehicle: saline with Tween-80).
As to `CCN(Cc1ccc(Cl)c(Cl)c1)c1ccc2nc(N)nc(N)c2c1C`, the T/C by setting is: (dose: 3.12 mg/kg/injection, schedule: Q01DX009 (ip), vehicle: water) 125 % of control; (dose: 25.0 mg/kg/injection, schedule: Q04DX003 (ip), vehicle: water) 125 and 136 % of control. The survivor count by setting is: (dose: 25.0 mg/kg/injection, schedule: Q01DX009 (ip), vehicle: water) 5 of 6; (dose: 50.0 mg/kg/injection, schedule: Q01DX009 (ip), vehicle: water) 4 of 6; (dose: 100.0 mg/kg/injection, schedule: Q01DX009 (ip), vehicle: water) 1 of 6; (dose: 200.0 mg/kg/injection, schedule: Q01DX009 (ip), vehicle: water) 2 of 6; (dose: 200.0 mg/kg/injection, schedule: Q04DX003 (ip), vehicle: water) 5 of 6; (dose: 400.0 mg/kg/injection, schedule: Q01DX009 (ip), vehicle: water) 0 of 6.
Take `COc1ccccc1NC(=O)N(CCCl)N=O`: the survivor count is 2 of 6 (dose: 100.0 mg/kg/injection, schedule: Q04DX003 (ip), vehicle: saline with Tween-80); 0 of 6 (dose: 200.0 mg/kg/injection, schedule: Q04DX003 (ip), vehicle: saline with Tween-80); 0 of 6 (dose: 400.0 mg/kg/injection, schedule: Q04DX003 (ip), vehicle: saline with Tween-80).
Take `CC1(C)N=C(N)N=C(N)N1c1cccc(OCCCOc2ccccc2)c1`: the survivor count runs as follows: (dose: 100.0 mg/kg/injection, schedule: Q01DX001 (ip), vehicle: Klucel (hydroxypropylcellulose) (HPC)) 2 of 6; (dose: 200.0 mg/kg/injection, schedule: Q01DX001 (ip), vehicle: Klucel (hydroxypropylcellulose) (HPC)) 0 of 6.
For `COCCCNC1=C(Cl)C(=O)c2ccccc2C1=O`, the survivor count (dose: 400.0 mg/kg/injection, schedule: Q01DX009 (ip), vehicle: Klucel (hydroxypropylcellulose) (HPC)) is recorded as 2 of 6.
On to `O=C(O)c1c(Cl)c(Cl)c(Cl)c(C(=O)O)c1Cl`, for which the survivor count (dose: 200.0 mg/kg/injection, schedule: Q01DX009 (ip), vehicle: Klucel (hydroxypropylcellulose) (HPC)) is reported as 6 of 6.
For `O/N=C(\c1ccccc1)c1ccccn1`, the survivor count under setting [1] was 6 of 6.
Regarding `Cc1cc2c(c3oc(C4(C)OC4C4OC4C)cc(=O)c13)C(=O)c1c(O)c(C3CC(C)(N(C)C)C(O)C(C)O3)cc(C3CC(N(C)C)C(O)C(C)O3)c1C2=O` (configuration not stated), the survivor count reads like this: (dose: 0.06 mg/kg/injection, schedule: Q01DX010 (ip), vehicle: other) 10 of 10; (dose: 0.12 mg/kg/injection, schedule: Q01DX010 (ip), vehicle: other) 7 of 10; (dose: 0.12 mg/kg/injection, schedule: Q01DX010 (ip), vehicle: saline) 8 of 10; (dose: 0.24 mg/kg/injection, schedule: Q01DX010 (ip), vehicle: other) 2 of 10; (dose: 0.24 mg/kg/injection, schedule: Q01DX010 (ip), vehicle: saline) 7 of 10; (dose: 0.48 mg/kg/injection, schedule: Q01DX010 (ip), vehicle: other) 0 of 10. The survivor count was 2 of 10 (dose: 0.48 mg/kg/injection, schedule: Q01DX010 (ip), vehicle: saline); 0 of 10 (dose: 0.96 mg/kg/injection, schedule: Q01DX010 (ip), vehicle: other); 0 of 10 (dose: 0.96 mg/kg/injection, schedule: Q01DX010 (ip), vehicle: saline); 6 of 6 (dose: 32.0 micrograms/kg/injection, schedule: Q01DX010 (ip), vehicle: saline); 6 of 6 (dose: 40.0 micrograms/kg/injection, schedule: Q01DX010 (ip), vehicle: saline); 10 of 10 (dose: 60.0 micrograms/kg/injection, schedule: Q01DX010 (ip), vehicle: saline). Besides, the T/C is 136 % of control (dose: 0.3 micrograms/kg/injection, schedule: Q01DX010 (ip), vehicle: saline); 136 % of control (dose: 0.5 micrograms/kg/injection, schedule: Q01DX010 (ip), vehicle: saline); 145 % of control (dose: 1.0 micrograms/kg/injection, schedule: Q01DX010 (ip), vehicle: saline); 145 % of control (dose: 1.3 micrograms/kg/injection, schedule: Q01DX010 (ip), vehicle: steroid suspending solution); 127 % of control (dose: 2.5 micrograms/kg/injection, schedule: Q01DX010 (ip), vehicle: saline); 145 % of control (dose: 2.5 micrograms/kg/injection, schedule: Q01DX010 (ip), vehicle: steroid suspending solution). The T/C reads like this: (dose: 3.0 micrograms/kg/injection, schedule: Q01DX009 (ip), vehicle: saline) 135 % of control; (dose: 4.0 micrograms/kg/injection, schedule: Q01DX010 (ip), vehicle: other) 127 % of control; (dose: 5.0 micrograms/kg/injection, schedule: Q01DX010 (ip), vehicle: saline) 127 and 133 % of control; (dose: 7.5 micrograms/kg/injection, schedule: Q01DX010 (ip), vehicle: saline) 131 and 145 % of control; (dose: 8.0 micrograms/kg/injection, schedule: Q01DX010 (ip), vehicle: carboxymethylcellulose (CMC)) 127 % of control; (dose: 8.0 micrograms/kg/injection, schedule: Q01DX010 (ip), vehicle: other) 127 % of control. In addition, the T/C is 129 and 136 % of control (dose: 10.0 micrograms/kg/injection, schedule: Q01DX010 (ip), vehicle: saline); 140 and 145 % of control (dose: 15.0 micrograms/kg/injection, schedule: Q01DX010 (ip), vehicle: saline); 136 % of control (dose: 16.0 micrograms/kg/injection, schedule: Q01DX010 (ip), vehicle: carboxymethylcellulose (CMC)); 140 % of control (dose: 16.0 micrograms/kg/injection, schedule: Q01DX010 (ip), vehicle: other); 133 % of control (dose: 20.0 micrograms/kg/injection, schedule: Q01DX010 (ip), vehicle: saline); 127 % of control (dose: 30.0 micrograms/kg/injection, schedule: Q01DX010 (ip), vehicle: saline). In addition, under “dose: 32.0 micrograms/kg/injection, schedule: Q01DX010 (ip), vehicle: carboxymethylcellulose (CMC)”, the T/C is 140 % of control.
With `CC12CCC(C(N)C1=O)C2(C)C` (configuration not stated), the survivor count (dose: 300.0 mg/kg/injection, schedule: Q01DX009 (ip), vehicle: saline) was 4 of 6 and the survivor count (dose: 400.0 mg/kg/injection, schedule: Q04DX003 (ip), vehicle: saline) is given as 0 of 6.
`CN(C)c1ccc(-c2cc(C(=O)O)c3cc4ccccc4cc3n2)cc1`: the survivor count runs as follows: under setting [3], 5 of 6; under setting [4], 4 of 6.
On to `NNc1nncc2ccccc12`, for which the survivor count under setting [2] is on record as 0 of 6.
As for `N#CC12CC3CC(CC(C3)C1)C2`, the survivor count (dose: 10.0 mg/kg/injection, schedule: Q01DX009 (ip), vehicle: saline with Tween-80) is reported as 6 of 6.
